Test results: publication PMC7348769
Results are given in words; binding and its absence hold for the method and conditions named. For part of these data: In cells and extracts the contact can be indirect. Some binding calls cover weakened binding; strength is not graded here. Where a sequence is shown, tags or fusion partners need not be part of it.

Sequences of proteins named here, by UniProt entry; tags and fusion partners are left off.
UniProt P17302: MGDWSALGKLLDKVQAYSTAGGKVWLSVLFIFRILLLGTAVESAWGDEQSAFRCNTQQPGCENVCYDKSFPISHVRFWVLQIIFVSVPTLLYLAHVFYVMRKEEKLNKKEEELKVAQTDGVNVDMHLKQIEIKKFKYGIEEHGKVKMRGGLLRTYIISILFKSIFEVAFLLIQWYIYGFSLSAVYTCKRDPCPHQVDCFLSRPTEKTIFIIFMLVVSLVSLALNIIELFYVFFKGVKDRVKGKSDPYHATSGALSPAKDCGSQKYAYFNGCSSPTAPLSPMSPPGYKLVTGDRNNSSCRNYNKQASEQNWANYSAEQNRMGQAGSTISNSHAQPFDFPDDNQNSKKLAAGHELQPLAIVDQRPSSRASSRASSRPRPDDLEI

T1: MLC1 wild type (megalencephalic leukoencephalopathy with subcortical cysts protein 1), X-press tagged (human) (UniProt Q15049)
T1 sequence: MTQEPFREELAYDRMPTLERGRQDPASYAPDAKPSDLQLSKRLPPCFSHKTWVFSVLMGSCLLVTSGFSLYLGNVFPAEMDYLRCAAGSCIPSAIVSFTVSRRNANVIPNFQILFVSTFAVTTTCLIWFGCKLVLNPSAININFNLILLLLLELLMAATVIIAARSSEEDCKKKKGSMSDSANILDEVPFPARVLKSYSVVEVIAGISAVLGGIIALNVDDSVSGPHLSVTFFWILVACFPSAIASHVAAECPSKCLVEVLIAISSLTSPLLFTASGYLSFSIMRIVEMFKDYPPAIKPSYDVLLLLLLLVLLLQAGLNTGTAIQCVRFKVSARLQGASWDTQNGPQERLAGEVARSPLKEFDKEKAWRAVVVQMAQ

B1: GlialCAM (glial cell adhesion molecule) (protein, UniProt Q14CZ8 34-416)
chain: VNITSPVRLIHGTVGKSALLSVQYSSTSSDRPVVKWQLKRDKPVTVVQSIGTEVIGTLRPDYRDRIRLFENGSLLLSDLQLADEGTYEVEISITDDTFTGEKTINLTVDVPISRPQVLVASTTVLELSEAFTLNCSHENGTKPSYTWLKDGKPLLNDSRMLLSPDQKVLTITRVLMEDDDLYSCMVENPISQGRSLPVKITVYRRSSLYIILSTGGIFLLVTLVTVCACWKPSKRKQKKLEKQNSLEYMDQNDDRLKPEADTLPRSGEQERKNPMALYILKDKDSPETEENPAPEPRSATEPGPPGYSVSPAVPGRSPGLPIRSARRYPRSPARSPATGRTHSSPPRAPSSPGRSRSASRTLRTAGVHIIREQDEAGPVEISA
B2: MLC1 wild type (megalencephalic leukoencephalopathy with subcortical cysts protein 1), X-press tagged (protein, UniProt Q15049 1-377)
chain: T1 sequence

Columns and labels:
[1] = target: T1, MLC1 wild type (megalencephalic leukoencephalopathy with subcortical cysts protein 1), X-press tagged (human); test: co-IP; anti-Xpress mAb and protein A/G PLUS agarose beads on lysates of U251 cells expressing X-press-MLC1; binding buffer 20 mM HEPES pH 7.4, 150 mM NaCl, 1 mM EDTA, 1 mM EGTA, 0.1% Triton X-100, 0.1% sodium deoxycholate; overnight at 4 °C; Western blot
[2] = target: T1, MLC1 wild type (megalencephalic leukoencephalopathy with subcortical cysts protein 1), X-press tagged (human); test: Western blot of SDS-PAGE (band of dimer size); cytosolic and membrane protein extracts (40 µg) of U251 cell lines, 4-12% gradient SDS-PAGE, anti-MLC1 pAb

Molecule | binding [1] | binding [2]
Connexin 43 (from UniProt P17302 1-382) | no binding | –
B1 | binds | –
B2 | – | binds
